No constants are given. Whether binding was seen depends on the method and setting. For some of these results: Binding seen in cells or lysates may run through a third protein. Some entries that bind do so weakly or less than the wild type. For some of these results: Where a sequence is shown, tags or fusion partners need not be part of it.
Columns and labels:
[1] = target: T1, tagged PCGF6 (293T transfection) (UniProt Q9BYE7); test: co-IP; 293T cells transfected with tagged PCGF6 and tagged MYC; lysate
T1 sequence: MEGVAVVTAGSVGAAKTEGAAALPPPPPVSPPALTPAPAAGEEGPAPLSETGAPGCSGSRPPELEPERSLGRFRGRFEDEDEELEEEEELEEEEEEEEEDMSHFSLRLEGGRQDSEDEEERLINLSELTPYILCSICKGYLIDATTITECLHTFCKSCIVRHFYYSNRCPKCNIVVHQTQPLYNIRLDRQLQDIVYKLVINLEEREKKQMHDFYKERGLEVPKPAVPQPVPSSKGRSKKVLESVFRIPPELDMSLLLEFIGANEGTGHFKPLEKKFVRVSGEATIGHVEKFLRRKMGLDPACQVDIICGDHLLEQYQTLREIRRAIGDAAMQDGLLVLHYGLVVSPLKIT

Protein sequences, listed by entry. Tags and fused reporters are not part of them.
UniProt Q99496: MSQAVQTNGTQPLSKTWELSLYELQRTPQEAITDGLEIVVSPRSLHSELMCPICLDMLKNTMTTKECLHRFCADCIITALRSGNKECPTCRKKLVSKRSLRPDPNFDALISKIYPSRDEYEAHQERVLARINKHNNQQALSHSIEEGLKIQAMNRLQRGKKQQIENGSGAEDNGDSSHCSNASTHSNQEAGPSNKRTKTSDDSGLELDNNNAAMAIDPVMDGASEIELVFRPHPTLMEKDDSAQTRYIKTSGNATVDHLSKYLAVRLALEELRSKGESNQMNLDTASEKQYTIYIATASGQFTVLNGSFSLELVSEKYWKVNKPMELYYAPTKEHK
UniProt P01106: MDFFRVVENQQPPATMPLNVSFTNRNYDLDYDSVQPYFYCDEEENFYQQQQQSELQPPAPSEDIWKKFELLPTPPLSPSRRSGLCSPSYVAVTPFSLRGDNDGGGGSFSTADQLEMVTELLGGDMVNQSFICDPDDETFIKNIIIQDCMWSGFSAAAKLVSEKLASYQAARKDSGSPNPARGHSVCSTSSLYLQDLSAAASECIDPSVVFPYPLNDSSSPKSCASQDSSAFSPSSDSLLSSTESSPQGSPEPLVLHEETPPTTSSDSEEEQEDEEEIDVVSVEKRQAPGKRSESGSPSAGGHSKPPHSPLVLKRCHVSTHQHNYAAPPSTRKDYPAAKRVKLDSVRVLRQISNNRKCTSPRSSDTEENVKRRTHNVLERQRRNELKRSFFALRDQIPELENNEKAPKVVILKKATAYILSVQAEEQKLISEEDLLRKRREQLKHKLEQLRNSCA

[2] = target: T2, Polycomb group ring finger 6 (PCGF6) (human (endogenous in human PSCs)) (UniProt Q9BYE7); test: co-IP; endogenous PCGF6 and MYC, human PSC lysate, anti-PCGF6 or anti-MYC antibody, Protein A/G Dynabeads, 4 °C; rabbit IgG as control; western blot
T2 sequence: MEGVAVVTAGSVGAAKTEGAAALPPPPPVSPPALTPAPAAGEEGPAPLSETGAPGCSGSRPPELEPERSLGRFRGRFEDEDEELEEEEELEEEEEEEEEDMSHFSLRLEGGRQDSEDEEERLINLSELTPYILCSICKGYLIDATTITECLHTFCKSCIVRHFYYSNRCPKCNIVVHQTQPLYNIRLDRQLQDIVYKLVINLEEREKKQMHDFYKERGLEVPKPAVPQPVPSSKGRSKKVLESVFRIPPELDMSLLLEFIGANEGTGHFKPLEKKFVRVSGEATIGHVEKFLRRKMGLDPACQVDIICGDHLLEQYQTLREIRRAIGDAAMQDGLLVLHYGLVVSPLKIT

[3] = target: RING1B (human (endogenous in human PSCs)) (UniProt Q99496); test: co-IP; endogenous proteins, PCGF6-KO human PSC lysate, anti-RING1B antibody, Protein A/G Dynabeads, 4 °C; washed with RIPA and wash buffer (500 mM NaCl); western blot
[4] = target: RING1B (human (endogenous in human PSCs)) (UniProt Q99496); test: co-IP; endogenous proteins, wild-type human PSC lysate, anti-RING1B antibody, Protein A/G Dynabeads, 4 °C; washed with RIPA and wash buffer (20 mM Tris-HCl, 500 mM NaCl, 2 mM EDTA, 1% Triton X-100, 0.1% SDS, pH 8.0); western blot
[5] = target: MYC (human (endogenous in human PSCs)) (UniProt P01106); test: co-IP; endogenous PCGF6 and MYC, human PSC lysate, anti-PCGF6 or anti-MYC antibody, Protein A/G Dynabeads, 4 °C; rabbit IgG as control; western blot
[6] = target: tagged MYC (293T transfection) (UniProt P01106); test: co-IP; 293T cells transfected with tagged PCGF6 and tagged MYC; lysate
GST-MYC = GST-MYC (UniProt P01106); test: pull-down; GST-MYC (20 μg) on Glutathione Sepharose 4B, incubated with purified His-PCGF6 (20 μg) for at least 4 h at 4 °C; beads washed five times; western blot; both purified

In the case of “tagged MYC (293T transfection) (from UniProt P01106 1-454)”, the binding [1] is reported as “binds”.

For MYC (from UniProt P01106 1-454), the binding [2] was “binds”.

B1: RYBP (protein, UniProt Q8N488 1-228)
chain: MTMGDKKSPTRPKRQAKPAADEGFWDCSVCTFRNSAEAFKCSICDVRKGTSTRKPRINSQLVAQQVAQQYATPPPPKKEKKEKVEKQDKEKPEKDKEISPSVTKKNTNKKTKPKSDILKDPPSEANSIQSANATTKTSETNHTSRPRLKNVDRSTAQQLAVTVGNVTVIITDFKEKTRSSSTSSSTVTSSAGSEQQNQSSSGSESTDKGSSRSSTPKGDMSAVNDESF
In the case of B1, the binding [3] is reported as “binds” and the binding [4] is reported as “binds”.

B2: Polycomb group ring finger 6 (PCGF6) (protein, UniProt Q9BYE7 1-350)
chain: MEGVAVVTAGSVGAAKTEGAAALPPPPPVSPPALTPAPAAGEEGPAPLSETGAPGCSGSRPPELEPERSLGRFRGRFEDEDEELEEEEELEEEEEEEEEDMSHFSLRLEGGRQDSEDEEERLINLSELTPYILCSICKGYLIDATTITECLHTFCKSCIVRHFYYSNRCPKCNIVVHQTQPLYNIRLDRQLQDIVYKLVINLEEREKKQMHDFYKERGLEVPKPAVPQPVPSSKGRSKKVLESVFRIPPELDMSLLLEFIGANEGTGHFKPLEKKFVRVSGEATIGHVEKFLRRKMGLDPACQVDIICGDHLLEQYQTLREIRRAIGDAAMQDGLLVLHYGLVVSPLKIT
In the case of B2, the binding [5] is reported as “binds”.

B3: tagged PCGF6 (293T transfection) (protein, UniProt Q9BYE7 1-350)
chain: MEGVAVVTAGSVGAAKTEGAAALPPPPPVSPPALTPAPAAGEEGPAPLSETGAPGCSGSRPPELEPERSLGRFRGRFEDEDEELEEEEELEEEEEEEEEDMSHFSLRLEGGRQDSEDEEERLINLSELTPYILCSICKGYLIDATTITECLHTFCKSCIVRHFYYSNRCPKCNIVVHQTQPLYNIRLDRQLQDIVYKLVINLEEREKKQMHDFYKERGLEVPKPAVPQPVPSSKGRSKKVLESVFRIPPELDMSLLLEFIGANEGTGHFKPLEKKFVRVSGEATIGHVEKFLRRKMGLDPACQVDIICGDHLLEQYQTLREIRRAIGDAAMQDGLLVLHYGLVVSPLKIT
In the case of B3, the binding [6] is reported as “binds”.

B4: His-PCGF6 (protein, UniProt Q9BYE7 1-350)
chain: MEGVAVVTAGSVGAAKTEGAAALPPPPPVSPPALTPAPAAGEEGPAPLSETGAPGCSGSRPPELEPERSLGRFRGRFEDEDEELEEEEELEEEEEEEEEDMSHFSLRLEGGRQDSEDEEERLINLSELTPYILCSICKGYLIDATTITECLHTFCKSCIVRHFYYSNRCPKCNIVVHQTQPLYNIRLDRQLQDIVYKLVINLEEREKKQMHDFYKERGLEVPKPAVPQPVPSSKGRSKKVLESVFRIPPELDMSLLLEFIGANEGTGHFKPLEKKFVRVSGEATIGHVEKFLRRKMGLDPACQVDIICGDHLLEQYQTLREIRRAIGDAAMQDGLLVLHYGLVVSPLKIT
With B4 the binding (GST-MYC) was “binds”.

Source: PMC9357003
